Results deposited as PubChem BioAssay AID686938 (Drosophila RNAi Screening Center, 2013)
The deposit covers about 23,000 reagents; below is a random part of those that have a named target and a result. Over the whole deposit, 75 (0.33%) are marked active. 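Raw plate signals without normalisation; calls rest on plate z-scores that were not deposited; ratio present for only 364 wells.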 Entries without a mark were called inactive. A plus sign joins genes that one reagent is predicted to hit. Reagent sequences are not shown. The record does not give: the dose of the treatment.

- Purpose: 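Knock-downs reducing store-operated calcium influx in Drosophila cells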 (primary screen)
- Cell system: Drosophila S2R+ cells
- Knock-down reagent: long dsRNA against Drosophila genes, about 0.25 µg dsRNA per well, roughly 10,000 cells
- Duration: 5 days of knock-down before the calcium assay
- Conditions: thapsigargin (SERCA pump blocker) to empty calcium stores; entry signal taken 4 min after adding it
- Measurement: 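Duplicate raw fluo-4 intensities per well from a plate reader, at rest and four minutes after thapsigargin emptied calcium stores; entry-to-rest ratio filled for only some wells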
- Direction: calcium entry signal: higher = stronger calcium signal after store depletion; resting calcium signal: higher = higher resting calcium signal
- Call rule: 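Hit if the duplicate-averaged plate z-score for entry over resting signal is under −3; wells with weak total dye signal (Fmax z < −2) or more than 5 off-targets removed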
- Calls: active = strongly reduced calcium entry; inactive = no strong reduction

no.	target	amplicon	calcium entry signal, replicate 1 (fluorescence units)	calcium entry signal, replicate 2 (fluorescence units)	resting calcium signal, replicate 1 (fluorescence units)	resting calcium signal, replicate 2 (fluorescence units)
1	CG13795	DRSC02299	3.06e7	4.44e7	1.42e7	1.92e7
2	ACXB (Adenylyl cyclase X B)	DRSC00845	4.88e7	3.05e7	2.24e7	1.51e7
3	Cpr56F (Cuticular protein 56F)	DRSC07326	5.22e7	5.72e7	2.32e7	2.68e7
4	CG43078	DRSC10292	3.80e7	3.09e7	2.51e7	1.36e7
5	CG43078	DRSC10608	3.85e7	2.93e7	2.48e7	1.22e7
6	CG43078	DRSC21541	3.37e7	3.99e7	2.05e7	1.72e7
7	CG43078	DRSC22327	3.66e7	4.42e7	1.71e7	2.50e7
8	sle + CG12592	DRSC21387	3.99e7	3.38e7	2.40e7	1.59e7
9	PIP5K59B (Phosphatidylinositol 4-phosphate 5-kinase 59B)	DRSC04290	3.78e7		2.01e7	
10	PIP5K59B (Phosphatidylinositol 4-phosphate 5-kinase 59B)	DRSC04403	3.66e7	4.40e7	1.97e7	2.16e7
11	ksr (kinase suppressor of ras)	DRSC12379	4.48e7	2.46e7	2.25e7	1.28e7
12	Pvr (PDGF- and VEGF-receptor related)	DRSC03080	3.11e7 (active)		2.46e7	
13	CG9396	DRSC16487	3.55e7	3.27e7	1.67e7	1.68e7
14	CG32687	DRSC18210	2.79e7	3.06e7	1.36e7	1.51e7
15	CG32687	DRSC18237	2.93e7	4.13e7	1.46e7	1.83e7
16	Osi24 (Osiris 24)	DRSC12275	4.32e7	4.01e7	2.06e7	1.90e7
17	lncRNA:CR43337 (long non-coding RNA:CR43337)	DRSC07893	4.48e7	4.12e7	2.41e7	2.01e7
18	CG15403	DRSC00417	2.64e7	2.54e7	1.27e7	1.27e7
19	CG16779	DRSC15153	4.05e7	3.40e7	2.43e7	1.92e7
20	Ubx (Ultrabithorax)	DRSC16891	2.66e7	4.56e7	1.30e7	2.11e7
21	CG31495	DRSC16762	3.80e7	5.17e7	1.80e7	7.96e7
22	Jon25Bii (Jonah 25Bii)	DRSC03114	4.18e7	3.25e7	1.96e7	1.56e7
23	Tsp42El (Tetraspanin 42El)	DRSC06186	3.77e7		1.88e7	
24	aos (argos)	DRSC11323	3.77e7	5.51e7	1.84e7	2.18e7

Part of the list above in another layout:
{"target":"ksr (kinase suppressor of ras)","amplicon":"DRSC12379","calcium entry signal, replicate 1 (fluorescence units)":4.48e7,"calcium entry signal, replicate 2 (fluorescence units)":2.46e7,"resting calcium signal, replicate 1 (fluorescence units)":2.25e7,"resting calcium signal, replicate 2 (fluorescence units)":1.28e7}
{"target":"Pvr (PDGF- and VEGF-receptor related)","amplicon":"DRSC03080","calcium entry signal, replicate 1 (fluorescence units)":"3.11e7 (active)","resting calcium signal, replicate 1 (fluorescence units)":2.46e7}
{"target":"CG9396","amplicon":"DRSC16487","calcium entry signal, replicate 1 (fluorescence units)":3.55e7,"calcium entry signal, replicate 2 (fluorescence units)":3.27e7,"resting calcium signal, replicate 1 (fluorescence units)":1.67e7,"resting calcium signal, replicate 2 (fluorescence units)":1.68e7}
